# Source: PubChem BioAssay AID504444 (National Center for Advancing Translational Sciences (NCATS), 2011)
# The campaign covered roughly 360,000 compounds. About 7,500 (2.1%) were called active. Inconclusive results, whose numbers are uncertain, are shown with a selection of clear calls. The call rests on the fitted dose curve; in most records, active means well fitted inhibition curve with a large enough effect; inconclusive means small, poorly fitted or top-dose-only effect, or effect the other way; inactive means flat fitted curve, though single readings scatter. Where the call is inconclusive, the potency comes from a doubtful curve fit.
# Assay: Nrf2 qHTS screen for inhibitors; further: nearly all actives have a fitted effect of over 60% in size
# Conditions: A549 ARE-Fluc reporter, luciferase luminescence, 18-24 h; activity change, negative = inhibition: at 46 µM (top of the series)
# Method in brief: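 In this cell-based qHTS, ARE-driven firefly luciferase in A549 cells reports Nrf2 activity; the luminescent signal after BugLite lysis is the measured value, with a prior CellTiter-Fluor read for cell health.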
# On the % scale 0 is the no-effect control and ±100 the full control effect; potency means the concentration at half of the fitted maximal effect.
Compound,Potency,"activity change, negative = inhibition"
Cc1cnc(C(=O)Nc2nnc(C(C)C)s2)cn1,"inconclusive: 2.31 µM [activator, partial curve, poor fit]",–
CC(=O)COC(=O)c1cccc(N2C(=O)C3C4C=CC(C4)C3C2=O)c1 (configuration not stated),–,inactive: -7.85%
Cc1cc(C)nc(-n2nc(C)c(Sc3ccc(F)cc3)c2N)n1,"inconclusive: 0.58 µM [activator, full curve]",–
O=C(O)c1ccccc1Nc1ccnc(C(F)(F)F)c1,"inconclusive: 23.1 µM [falling, partial curve, poor fit]",–
COCCCNC(=O)CCCn1c(=O)c2ccccc2n(CC(=O)Nc2c(C)cccc2C)c1=O,"inconclusive: 23.1 µM [activator, partial curve, poor fit]",–
Cc1cc(C)cc(N(C(=O)c2sc(C)nc2C)C(C(=O)NCc2ccco2)c2ccccc2)c1 (configuration not stated),"inconclusive: 10.3 µM [falling, partial curve]",–
Cc1ccc(C2C(C=Nc3c(C)n(C)n(-c4ccccc4)c3=O)=C(c3ccccc3)Oc3ccccc32)cc1 (configuration not stated),"inconclusive: 9.2 µM [falling, partial curve]",–
CC(C)=C(NC(=O)c1ccccc1)C(=O)N/N=C/c1ccc(O)cc1,"inconclusive: 2.91 µM [falling, partial curve, poor fit]",–
CC(C)(C)C(=O)Nc1ccc(N=Nc2ccccc2)cc1,"inconclusive: 0.206 µM [activator, full curve]",–
CCN(CC)C(=O)CCc1nnc(Cc2cccc(C(F)(F)F)c2)o1,"inconclusive: 4.11 µM [activator, full curve]",–
Cc1ccc(NC(=O)c2ccc3c(c2)C(=O)N(CC2CCCO2)C3=O)cc1C (configuration not stated),"inconclusive: 23.1 µM [activator, single point]",–
CC(C)(C)NS(=O)(=O)c1ccc(CCC(=O)Nc2cc(Cl)ccc2Oc2ccccc2)cc1,"inconclusive: 16.4 µM [falling, single point]",–
Cc1ccc(OCC(=O)Nc2ccc([N+](=O)[O-])cc2)cc1,–,inactive: -16.1%
CCc1ccc(NC(=O)C(C)OC(=O)c2ccc(NS(=O)(=O)c3ccc(C)c([N+](=O)[O-])c3)cc2)cc1 (configuration not stated),active: 20.6 µM,–
Cc1cnc(NC(=O)c2ccccn2)s1,"inconclusive: 0.206 µM [activator, full curve, poor fit]",–
O=C(CNC(=O)c1ccc(F)cc1)OCc1cc(=O)n2nc(C3CCCCC3)sc2n1,"inconclusive: 23.1 µM [activator, partial curve]",–
COc1ccc(OC)c(NC(=O)CN2CCCN(Cc3ccccc3Cl)S2(=O)=O)c1,–,inactive: -8.03%
O=C(Nc1ccc(Cl)cc1)NC1CCCCC1,"inconclusive: 15.8 µM [activator, partial curve]",–
CCN(CC)CCCn1c(=S)[nH]c2ncccc2c1=O,–,inactive: 23.2%
O=C(N/N=C/c1ccccn1)c1[nH]c2ccc([N+](=O)[O-])cc2c1-c1ccccc1,"inconclusive: 29.1 µM [falling, single point]",–
O=C(Nc1ccc(S(=O)(=O)N2CCOCC2)cc1)c1ccco1,–,inactive: 4.99%
O=C(CSc1ccc(F)cc1)NCCSc1ccccc1,"inconclusive: 5.8 µM [activator, full curve]",–
COc1cc(OC)c(C(=O)/C=C/c2ccc(OCc3ccccc3)c(OC)c2)c(OC)c1,"inconclusive: 23.1 µM [falling, single point]",–

Compound,Potency,"activity change, negative = inhibition"
O=C(Nc1cccc(Cl)c1)N1CCN(c2ncccn2)CC1,"inconclusive: 32.6 µM [falling, single point]",–
COc1ccccc1NC(=O)NNC(=O)CCc1ccccc1,–,inactive: 1.07%
Cc1cc(C(=O)CN2C(=O)C(=O)N(Cc3ccccc3)C2=O)c(C)n1CC1COc2ccccc2O1 (configuration not stated),"inconclusive: 23.1 µM [falling, single point]",–
OCCn1c(-c2ccc3c(c2)OCO3)csc1=Nc1ccccc1,"inconclusive: 29.1 µM [falling, single point]",–
CCc1ccc(Nc2sc(C(=O)c3ccc(F)cc3)c(N)c2S(=O)(=O)c2ccccc2)cc1,"inconclusive: 25.9 µM [falling, single point]",–
Cc1ccc(-c2cc(C(=O)Nc3ccccc3C)c3ccccc3n2)o1,–,inactive: -7.61%
COc1cccc2cc(CC(=O)c3ccccc3)c(=O)oc12,–,inactive: 10.3%
O=C(N/N=C/c1ccccn1)c1cccnc1,–,inactive: -21%
Cc1cc(C)n(-c2nc3ccccc3s2)n1,"inconclusive: 25.9 µM [activator, single point]",–
COc1cccc(OC)c1C(=O)Nc1ccc(C(=O)NCc2ccccc2)cc1,–,inactive: 0.621%
O=C(CN1CCN(c2ccccc2F)CC1)NC(=O)NCc1ccco1,"inconclusive: 4.61 µM [falling, partial curve, poor fit]",–
Cc1ccc(-c2cc(-c3ccccc3O)nc(N/N=C/c3cccnc3)n2)cc1,"inconclusive: 29.1 µM [falling, single point]",–
CCOc1cc(/C=N/O)ccc1OCc1ccc([N+](=O)[O-])cc1,–,inactive: 15.1%
COc1cc(/C=C(\C#N)C(=O)N2CCOCC2)ccc1OCc1ccccc1,–,inactive: -5.33%
Clc1ccc(-c2nnc(SCc3nc4ccccc4[nH]3)o2)c(Cl)c1,"inconclusive: 25.9 µM [falling, single point]",–
CC(=O)OC1C2CCC1C([N+]1(C)CCCCC1)CC2 (configuration not stated),–,inactive: 12.6%
Cc1c(C(=O)N2CCc3ccccc3C2)oc2ccc(Br)cc12,"inconclusive: 6.51 µM [activator, partial curve]",–
COc1ccc(N2CCN(C(=O)c3cc4c(-c5ccc(Cl)cc5)nn(C)c4s3)CC2)cc1,"inconclusive: 0.13 µM [activator, full curve, poor fit]",–
Cc1ccccc1CN1[C@@H](CC2CCCCC2)COCCS1(=O)=O,"inconclusive: 20.6 µM [falling, single point]",–
CCCCn1nnc(NC(=O)COc2cc(C)ccc2C(C)C)n1,"inconclusive: 18.4 µM [activator, partial curve]",–
CC(=O)c1sc(N/N=C\c2ccccc2O)nc1C,"inconclusive: 20.6 µM [activator, single point]",–
COc1cc(O)c(C(CC(=O)N2CCN(c3ccccc3)CC2)c2ccc(N(C)C)cc2)c(OC)c1 (configuration not stated),"inconclusive: 16.4 µM [falling, partial curve, poor fit]",–
O=C(O)c1cc(F)c(S(=O)(=O)N2CCN(S(=O)(=O)c3ccc4c(c3)OCCO4)CC2)cc1F,"inconclusive: 11.6 µM [activator, partial curve, poor fit]",–

# Part of the list above, bar-delimited:
Compound | Potency | activity change, negative = inhibition
O=C(CNC(=O)c1ccc(F)cc1)OCc1cc(=O)n2nc(C3CCCCC3)sc2n1 | inconclusive: 23.1 µM [activator, partial curve] | –
COc1ccc(OC)c(NC(=O)CN2CCCN(Cc3ccccc3Cl)S2(=O)=O)c1 | – | inactive: -8.03%
O=C(Nc1ccc(Cl)cc1)NC1CCCCC1 | inconclusive: 15.8 µM [activator, partial curve] | –
CCN(CC)CCCn1c(=S)[nH]c2ncccc2c1=O | – | inactive: 23.2%
O=C(N/N=C/c1ccccn1)c1[nH]c2ccc([N+](=O)[O-])cc2c1-c1ccccc1 | inconclusive: 29.1 µM [falling, single point] | –
O=C(Nc1ccc(S(=O)(=O)N2CCOCC2)cc1)c1ccco1 | – | inactive: 4.99%
O=C(CSc1ccc(F)cc1)NCCSc1ccccc1 | inconclusive: 5.8 µM [activator, full curve] | –
COc1cc(OC)c(C(=O)/C=C/c2ccc(OCc3ccccc3)c(OC)c2)c(OC)c1 | inconclusive: 23.1 µM [falling, single point] | –
O=C(Nc1cccc(Cl)c1)N1CCN(c2ncccn2)CC1 | inconclusive: 32.6 µM [falling, single point] | –
COc1ccccc1NC(=O)NNC(=O)CCc1ccccc1 | – | inactive: 1.07%
Cc1cc(C(=O)CN2C(=O)C(=O)N(Cc3ccccc3)C2=O)c(C)n1CC1COc2ccccc2O1 (configuration not stated) | inconclusive: 23.1 µM [falling, single point] | –
OCCn1c(-c2ccc3c(c2)OCO3)csc1=Nc1ccccc1 | inconclusive: 29.1 µM [falling, single point] | –
CCc1ccc(Nc2sc(C(=O)c3ccc(F)cc3)c(N)c2S(=O)(=O)c2ccccc2)cc1 | inconclusive: 25.9 µM [falling, single point] | –
Cc1ccc(-c2cc(C(=O)Nc3ccccc3C)c3ccccc3n2)o1 | – | inactive: -7.61%
COc1cccc2cc(CC(=O)c3ccccc3)c(=O)oc12 | – | inactive: 10.3%
O=C(N/N=C/c1ccccn1)c1cccnc1 | – | inactive: -21%

# More compounds follow:

Compound,Potency,"activity change, negative = inhibition"
O=c1[nH]c(-c2ccc(O)cc2)nc2scc(-c3cccs3)c12,"inconclusive: 7.31 µM [activator, partial curve]",–
O=c1/c(=C\c2ccc(O)cc2)sc2n1C(c1ccccc1)C(c1ccccc1)=NN=2 (configuration not stated),"inconclusive: 16.4 µM [falling, single point]",–
O=C(NN1C(=O)/C(=C/C=C/c2ccco2)SC1=S)c1ccncc1,–,inactive: -1.56%
O=C(O)c1cccc(NC(=S)N/N=C/c2ccccn2)c1,"inconclusive: 0.146 µM [activator, full curve]",–
COC(=O)/C=C/c1ccc2c(c1)OCO2,"inconclusive: 4.61 µM [activator, partial curve]",–
Cc1ccc(C(C)C)c(OCc2ccc(C(=O)N/N=C/c3ccc(C(=O)O)cc3)cc2)c1,–,inactive: -17.5%
CC(C)(C)c1ccc(C(=O)O/N=C(\N)c2ccccn2)cc1,"inconclusive: 32.6 µM [falling, single point]",–
COC(=O)[C@]1(C)N[C@H](CN(C)C(=O)c2ccc(C)cc2)[C@@H]2C(=O)N(Cc3ccccc3)C(=O)[C@@H]21,"inconclusive: 32.6 µM [activator, single point]",–
COC(=O)/C=C/c1ccccc1S(=O)(=O)N(Cc1ccccc1)Cc1ccco1,inactive,–
CC12CCC(=O)C=C1CCC1C2CCC2(C)C(c3csc(N)n3)CCC12 (configuration not stated),active: 18.4 µM,–
CCOC(=O)c1ccc(NC2c3ccccc3C(=O)N2c2ccc(C)cn2)cc1 (configuration not stated),"inconclusive: 1.64 µM [activator, partial curve, poor fit]",–
CCN(CC)c1ccc(NC(=O)c2ccco2)cc1,"inconclusive: 0.366 µM [activator, full curve]",–
O=C(N/N=C/c1c(-c2ccccc2)[nH]c2ccccc12)c1cccnc1,"inconclusive: 25.9 µM [activator, single point]",–
CC(=O)c1c(C(C)=O)c(C)n(Cc2ccc3c(c2)OCO3)c1C,"inconclusive: 29.1 µM [falling, single point]",–
CC(=O)Oc1ccccc1-c1nc(/C=C/c2ccccc2)no1,"inconclusive: 20.6 µM [activator, partial curve]",–
CCOC(=O)c1cn2nc(-c3ccc(OC)cc3)cc2nc1C1CCN(C(=O)OC(C)(C)C)CC1,"inconclusive: 18.4 µM [falling, single point]",–
COC(=O)c1cc(Br)ccc1NC(=O)Nc1ccc(C)cc1,"inconclusive: 25.9 µM [falling, partial curve, poor fit]",–
Cc1ccc2nc(-c3cccnc3SCC(=O)N3c4ccccc4CC3C)[nH]c2c1 (configuration not stated),"inconclusive: 6.51 µM [activator, partial curve]",–
Cc1ccccc1OCC1Cc2c(nc(N)c(C#N)c2N)O1 (configuration not stated),"inconclusive: 0.82 µM [activator, full curve, poor fit]",–
C=CCOc1ccc(C(=O)Nc2ccc3c(c2)n(C)c(=O)n3C)cc1,"inconclusive: 20.6 µM [falling, single point]",–
O=C(Nc1ccc(Cn2cccn2)cc1)c1ccc(COc2ccc(Br)cc2)cc1,–,inactive: 5.87%
